PubChem BioAssay AID686937 – Drosophila RNAi Screening Center, 2013
Assay: 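Knock-downs that reduce output of a secreted reporter enzyme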 (primary screen). Cell system: Drosophila S2 cells expressing secreted horseradish peroxidase. Knock-down reagent: long dsRNA against Drosophila genes. Time to read-out: about 5.5 days (5 days dsRNA, then 12 h reporter induction). Challenge: reporter expression induced after 5 days of dsRNA, read 12 h later; inducer not stated. Detection: 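Chemiluminescent measurement of peroxidase in the medium 12 h after reporter induction, following 5 days of dsRNA, given as a z-score per plate; higher means more secretion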. Scale: z-score: higher = more reporter secreted into medium.
The deposit covers about 23,000 reagents; this is an unselected part of those that have a named target and a result. 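Reduced-secretion tags in replicate 1 do not always agree with the z-scores; no criterion for assigning the tags was given.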 Not given: the amount of reagent.

| target | dsRNA | z-score, replicate 1 | z-score, replicate 2 | z-score, replicate 3 | z-score, replicate 4 | phenotype, replicate 1 |
| --- | --- | --- | --- | --- | --- | --- |
| CG7102 (GeneID 34079) | DRSC02647 | 0.28 | 0.26 | – | – | – |
| CG7102 (GeneID 34079) | DRSC03007 | 0.7 | 0.48 | – | – | – |
| Toll-6 (GeneID 39663) | DRSC11304 | 0.3 | -0.99 | – | – | – |
| ReepA (GeneID 37643) | DRSC04572 | 0.28 | 0.29 | – | – | – |
| ReepA (GeneID 37643) | DRSC22475 | 0.5 | 0.44 | – | – | – |
| CG11333 (GeneID 43714) | DRSC14301 | 0.44 | 0.35 | – | – | – |
| dtr (GeneID 318856) | DRSC01847 | 0.3 | 0.37 | – | – | – |
| CG9961 (GeneID 33459) | DRSC00738 | -0.08 | -0.23 | – | – | – |
| sPLA2 (GeneID 35665) | DRSC06041 | 0.34 | 0.3 | – | – | – |
| clu (GeneID 36793) | DRSC07181 | 0.26 | 0.57 | – | – | – |
| Sil1 (GeneID 43034) | DRSC14242 | 0.3 | 0.31 | – | – | – |
| Dnah3 (GeneID 38586) | DRSC08130 | 0.15 | 0.24 | – | – | – |
| Dnah3 (GeneID 38586) | DRSC08513 | 0.24 | 0.31 | – | – | – |
| Jhbp7 (GeneID 43035) | DRSC14408 | 0.23 | 0.19 | – | – | – |
| path (GeneID 39106) | DRSC10361 | 0.38 | 0.3 | – | – | – |
| Cys (GeneID 41767) | DRSC16637 | 0.3 | 0.52 | – | – | – |
| alrm (GeneID 43074) | DRSC14436 | 0 | -0.18 | – | – | – |
| CG15922 (GeneID 50048) | DRSC15128 | 0.26 | 0.09 | – | – | – |
| mbc (GeneID 42817) | DRSC16995 | 0.01 | 0.18 | – | – | – |
| mute (GeneID 2768848) | DRSC06562 | -1.43 | -0.71 | – | – | – |
| mute (GeneID 2768848) | DRSC22931 | -1.04 | -0.61 | – | – | reduced secretion |
| mldr (GeneID 31568) | DRSC18100 | 0.51 | 0.72 | – | – | – |
| CG14154 (GeneID 39207) | DRSC10156 | 0.14 | 0.36 | – | – | – |
| CG4554 (GeneID 37570) | DRSC04473 | -0.15 | -0.02 | -0.19 | -0.2 | – |
| CG11095 (GeneID 32348) | DRSC19375 | 0.18 | 0.45 | – | – | – |
| CG34454 (GeneID 5740130) | DRSC07864 | 0.35 | 0.35 | – | – | – |
| Mdr65 (GeneID 38726) | DRSC11220 | 0.23 | 0.16 | 0.35 | 0.23 | – |
| CG34169 (GeneID 5740400) | DRSC01579 | 0.05 | 0.27 | – | – | – |
| CG10428 (GeneID 35150) | DRSC02054 | 0.3 | 0.16 | – | – | – |
| CG4972 (GeneID 34388) | DRSC02798 | 0.24 | -0.03 | – | – | – |
| Ibf1 (GeneID 41103) | DRSC16419 | -0.02 | 0.42 | – | – | – |
| CG14316 (GeneID 42163) | DRSC14795 | 0.26 | 0.39 | – | – | – |
| jigr1 (GeneID 43093) | DRSC13724 | 0.41 | 0.61 | – | – | – |
| jigr1 (GeneID 43093) | DRSC15233 | 0.44 | 0.46 | – | – | – |
| jigr1 (GeneID 43093) | DRSC22617 | -0.11 | -0.48 | – | – | – |
| side-VIII (GeneID 37310) | DRSC05880 | 0.43 | -0.3 | – | – | – |
| side-VIII (GeneID 37310) | DRSC05883 | -1.17 | -0.47 | – | – | – |
| side-VIII (GeneID 37310) | DRSC06157 | 0.37 | 0.38 | 0.25 | 0.29 | – |
| CG17105 (GeneID 34466) | DRSC02574 | 0 | 0.2 | – | – | – |
| Peritrophin-15b (GeneID 50432) | DRSC02266 | 0.28 | 0.22 | – | – | – |
| CG11159 (GeneID 37341) | DRSC06050 | -0.78 | -0.42 | – | – | – |
| Nrx-IV (GeneID 39387) | DRSC11238 | 0.34 | 0.2 | – | – | – |
| Ask1 (GeneID 42366) | DRSC16789 | 0.43 | 0.52 | – | – | – |
| Ask1 (GeneID 42366) | DRSC21697 | 0.18 | 0.03 | – | – | – |
| CG11504 (GeneID 43557) | DRSC14318 | 0.36 | 0.37 | – | – | – |
| CG8839 (GeneID 36340) | DRSC07285 | 0.45 | 0.31 | – | – | – |
| CG10257 (GeneID 36671) | DRSC05985 | 0 | 0.21 | – | – | – |
| rig (GeneID 37335) | DRSC06053 | 0.23 | 0.38 | – | – | – |
| rig (GeneID 37335) | DRSC06400 | 0.32 | 0.15 | – | – | – |
| CG14034 (GeneID 33751) | DRSC02359 | 0.33 | 0.19 | – | – | – |
| CG10444 (GeneID 37294) | DRSC05990 | -5.81 | -6.25 | – | – | reduced secretion |
| CG7368 (GeneID 39301) | DRSC10826 | 0.02 | 0.58 | 0.18 | 0.14 | – |
| CG7368 (GeneID 39301) | DRSC22821 | -0.88 | -0.14 | – | – | – |
| Patronin (GeneID 36978) | DRSC06756 | 0.48 | -0.38 | – | – | – |
| Patronin (GeneID 36978) | DRSC06757 | 0.36 | 0.2 | – | – | – |
| Patronin (GeneID 36978) | DRSC06994 | 0.35 | 0.25 | – | – | – |
| spg (GeneID 43404) | DRSC14373 | 0.24 | 0.26 | – | – | – |
| spg (GeneID 43404) | DRSC14881 | 0.05 | 0.31 | – | – | – |
| hay (GeneID 39202) | DRSC11354 | -5.2 | -6.84 | – | – | reduced secretion |
| hpo (GeneID 37247) | DRSC06065 | 0.25 | 0.27 | – | – | – |
| fwe (GeneID 39720) | DRSC09398 | 0.48 | 0.3 | – | – | – |
| fwe (GeneID 39720) | DRSC10594 | 0.34 | 0.44 | – | – | – |
| fwe (GeneID 39720) | DRSC21400 | 1.38 | 0.02 | – | – | – |
| CG34038 (GeneID 3885596) | DRSC04039 | 0.01 | – | – | – | – |
| CG12880 (GeneID 43328) | DRSC14568 | 0.33 | 0.27 | – | – | – |
| AP-1gamma (GeneID 31842) | DRSC18433 | -0.43 | -0.64 | – | – | – |
| CG13692 (GeneID 33216) | DRSC00361 | 0.37 | 0.36 | – | – | – |
| CheB38a (GeneID 2768934) | DRSC03205 | -1.05 | 0.19 | -0.1 | -0.38 | – |
| CG4956 (GeneID 43114) | DRSC15683 | 0.11 | 0.22 | – | – | – |
| CG5756 (GeneID 37064) | DRSC06950 | 0.17 | 0.45 | – | – | – |
| PH4alphaNE1 (GeneID 43625) | DRSC16546 | 0.21 | 0.18 | – | – | – |
| CG4239 (GeneID 32606) | DRSC19885 | 0.36 | -0.37 | – | – | – |
| maca (GeneID 41892) | DRSC15738 | 0.11 | 0.01 | – | – | – |
| BtbVII (GeneID 38376) | DRSC08151 | 0.35 | -0.2 | – | – | – |
| BtbVII (GeneID 38376) | DRSC08415 | -0.76 | 0.16 | – | – | – |
| Lrp4 (GeneID 32552) | DRSC20118 | 0.29 | 0.17 | – | – | – |
| Ktl (GeneID 42475) | DRSC14270 | 0.25 | 0.39 | – | – | – |
| Tmtc1 (GeneID 33455) | DRSC00147 | 0.45 | -0.09 | – | – | – |
| Tmtc1 (GeneID 33455) | DRSC00151 | -0.14 | -0.15 | – | – | – |
| Tmtc1 (GeneID 33455) | DRSC00314 | 0.1 | -0.01 | – | – | – |
| Tmtc1 (GeneID 33455) | DRSC00411 | 0.1 | -0.07 | – | – | – |
| CG13837 (GeneID 42720) | DRSC14687 | 0.49 | 0.09 | – | – | – |

An excerpt from above, showing only “z-score, replicate 1”:
CG7102 (GeneID 34079) [DRSC02647]: 0.28
CG7102 (GeneID 34079) [DRSC03007]: 0.7
Toll-6 (GeneID 39663) [DRSC11304]: 0.3
ReepA (GeneID 37643) [DRSC04572]: 0.28
ReepA (GeneID 37643) [DRSC22475]: 0.5
CG11333 (GeneID 43714) [DRSC14301]: 0.44
dtr (GeneID 318856) [DRSC01847]: 0.3
